Data reported in PubChem BioAssay AID540256 (National Center for Advancing Translational Sciences (NCATS), 2011).
About 3,700 (1.2%) of roughly 300,000 compounds were called active. This list was built around the results that the source calls inconclusive (neither active nor inactive); the mix of calls is not that of the screen. The call rests on the fitted dose curve; tested in HEK293 cells. Potencies beside an inconclusive call are fits to weak or partial responses and may not hold up.

assay: qHTS for Inhibitors of binding or entry into cells for Lassa Virus; settings: Lassa virus pseudotype entry inhibition, cell reporter; activity change, negative = inhibition: at 37.9 µM (top of the series) unless noted; further: nearly all actives have a fitted effect of over 50% in size
On the % scale 0 is the no-effect control and ±100 the full control effect; potency means the concentration at half of the fitted maximal effect.

Compound | activity change, negative = inhibition | Potency
C=CCn1c(-c2sccc2C)n[nH]c1=S | inactive: 0.979% | –
COc1ccc(NC(=O)C2CC(=O)N(CCc3ccc(Cl)cc3)C2)cc1 (configuration not stated) | – | inconclusive: 35.5 µM [inhibitor, single point]
CC(C)(C)C1=C(C#N)C(c2ccc3c(c2)OCO3)C(C#N)=C(N)O1 (configuration not stated) | inactive: 1.11% | –
c1ccc2c(c1)ccc1[nH]c3c(c12)CCCC3 | – | active: 0.631 µM
CCOC(=O)c1ccc(NC(=O)Nc2c[nH]c(=O)[nH]c2=O)cc1 | inactive: 5% [at 46.1 µM] | –
COc1ccc(Cl)cc1NC(=O)CCS(=O)(=O)c1nc(-c2cccs2)cc(C(F)(F)F)n1 | – | inconclusive: 3.55 µM [inhibitor, single point]
Cc1nc(CNC(=O)C2CCC(=O)N(Cc3cccc(F)c3)C2)sc1C (configuration not stated) | – | inconclusive: 35.5 µM [activator, single point]
Cc1cc(C)c(C#N)c(N2CCN(Cc3ccccc3)CC2)n1 | inactive: -4.69% | –
CC(C)CN(CCCNC(=O)Cn1ncc2c3ccccc3n(C)c2c1=O)CC(C)C | inactive: 16.6% [at 46.1 µM] | –
CCNc1c(NC(=O)C2CCC(C)CC2)c(=O)oc2ccccc12 (configuration not stated) | inactive: 3.71% | –
Oc1ccc(-c2cnns2)c(O)c1 | – | active: 11.2 µM
CCCCCOc1ccc(NC2=CC(=O)CCC2)cc1 | – | inconclusive: 0.224 µM [activator, full curve, poor fit]
CCNc1nc(NCC)n2c(SCC(=O)NCC3CCCCC3)nnc2n1 | inactive: -26.6% | –
O=C(CN1c2ccccc2Sc2ccccc21)NNC(=O)Nc1ccc(Cl)cc1 | – | inconclusive: 8.91 µM [inhibitor, partial curve, poor fit]
CCOC(=O)N1CCC(n2c(SCC(=O)N3CCC(C)CC3)nc3ccccc3c2=O)CC1 | – | inconclusive: 25.9 µM [inhibitor, single point]
COc1ccc2c(c1)CCc1c(C(=O)Nc3ccc(F)c(Cl)c3)noc1-2 | inactive: 22.1% [at 46.1 µM] | –
CCc1nc2ccc(C(=O)N3CCN(c4ccccc4)CC3)cc2nc1CC | – | inactive
Cc1ccc(C)n1Cc1ccc(C(=O)O)cc1 | inactive: -4.24% | –
COc1ccc(NC(=O)c2cc(-c3cc(C)ccc3O)n[nH]2)cc1Cl | inactive: 8.78% | –
CC1CCc2nc(NC(=O)CN3CCOCC3)sc2C1 (configuration not stated) | inactive: 29.6% | –
Cn1c(=O)c2c(nc(N3CCCCCC3)n2CC(O)COc2ccccc2)n(C)c1=O (configuration not stated) | – | inconclusive: 10 µM [inhibitor, partial curve]
COC(=O)c1nnn(CC(=O)NC(=O)Nc2cccc(C)c2C)c1C(=O)OC | – | inconclusive: 3.55 µM [inhibitor, single point]
Cc1cc(C)c(NC(=O)CSc2nnc(CNC(=O)c3c(F)cccc3Cl)o2)c(C)c1 | – | inconclusive: 6.31 µM [activator, single point]
Cn1c(=O)c2[nH]c(N=NN3CCCCC3)nc2n(C)c1=O | – | inconclusive: 1.41 µM [inhibitor, partial curve, poor fit]

4 entries from above, as comma-separated lines:
Compound,"activity change, negative = inhibition",Potency
CCNc1nc(NCC)n2c(SCC(=O)NCC3CCCCC3)nnc2n1,inactive: -26.6%,–
Cc1ccc(C)n1Cc1ccc(C(=O)O)cc1,inactive: -4.24%,–
Cc1cc(C)c(NC(=O)CSc2nnc(CNC(=O)c3c(F)cccc3Cl)o2)c(C)c1,–,"inconclusive: 6.31 µM [activator, single point]"
Cn1c(=O)c2[nH]c(N=NN3CCCCC3)nc2n(C)c1=O,–,"inconclusive: 1.41 µM [inhibitor, partial curve, poor fit]"

Next part

Compound | activity change, negative = inhibition | Potency
O=C(/C=C/c1ccco1)NCC1(c2ccccc2)CCCC1 | inactive: -12.9% | –
CCOC(=O)c1[nH]c(C)c(C(=O)Nc2ccccc2F)c1C | – | inconclusive: 2.51 µM [inhibitor, partial curve, poor fit]
CCOP(=O)(OCC)/C(=N/OC(=O)c1ccc(Cl)cc1Cl)C(N)=O | – | inconclusive: 14.1 µM [activator, single point]
CCOc1ccc(-c2nonc2NC(=O)c2oc3ccc(Br)cc3c2C)cc1 | – | inconclusive: 11.2 µM [inhibitor, partial curve, poor fit]
CCN(CC)c1ccc(/C=N/NC(=S)NCc2ccccc2)cc1 | – | inconclusive: 0.651 µM [inhibitor, full curve, poor fit]
CC(C)CCN1C(=O)c2ccc(C(=O)NCc3ccccn3)cc2C1=O | – | inconclusive: 0.501 µM [inhibitor, single point]
Nc1ccccc1C(=O)NCc1ccco1 | – | inconclusive: 11.2 µM [activator, single point]
CC(C)c1ccc(/C=C/c2ccc(=O)n(C)n2)cc1 | – | inconclusive: 20 µM [inhibitor, partial curve, poor fit]
O=C(CSc1nnc(-c2ccccc2)c(-c2ccccc2)n1)NC1CCCCC1 | inactive: 0.489% [at 46.1 µM] | –
COc1ccc(/C=N/n2c(N)nc(-c3ccccc3)c2-c2ccccc2)cc1 | – | inconclusive: 35.5 µM [inhibitor, single point]
CC(C)C(=O)N1CCN(c2ccccc2NC(=S)NC(=O)Cc2ccccc2)CC1 | – | inconclusive: 35.5 µM [inhibitor, single point]
Oc1ccc(/C=N/NC(=S)Nc2cccnc2)c(O)c1 | – | inconclusive: 29.1 µM [inhibitor, single point]
O=C(NNC(=S)Nc1cccc(C(F)(F)F)c1)c1cccc(Cl)c1 | – | inconclusive: 4.47 µM [inhibitor, partial curve]
CCCCc1ccc(NC(=O)CSc2nc(=O)n(CCN(CC)CC)c3c2CCCC3)cc1 | – | inconclusive: 12.6 µM [inhibitor, partial curve, poor fit]
CCOc1ccc(CNS(=O)(=O)c2c(C(=O)N3CCC(C)CC3)c(C)n(C)c2C)cc1OC | inactive: 6.55% [at 46.1 µM] | –
O=C(c1cccc(S(=O)(=O)N2CCCCC2)c1)N1CCCCC1 | inactive: 14.2% | –
Cc1cc(C)cc(NS(=O)(=O)c2ccc(Oc3ncc(C(F)(F)F)cc3Cl)cc2)c1 | – | inconclusive: 3.66 µM [inhibitor, single point]
Cc1cc(S(=O)(=O)N2CCCCC2)ccc1OCC(=O)N1CCOCC1 | inactive: -3.38% | –
COc1cc(/C=C/c2cccc[n+]2C)ccc1OCC(=O)Nc1cccc(Cl)c1 | – | inconclusive: 1.78 µM [inhibitor, partial curve, poor fit]
CCN(CC)CCNC(=O)C(Cl)=C1C(Cl)=C(Cl)C(Cl)=C1Cl | – | inconclusive: 0.891 µM [inhibitor, full curve, poor fit]
COc1ccc(NC(=O)CC2SC(=O)NC2=O)cc1 (configuration not stated) | inactive: 1.6% | –
COC(=O)c1cnc(Oc2ccc(NC(=O)NC(=O)c3ccccc3Cl)cc2)cc1C(F)(F)F | – | inconclusive: 4.47 µM [inhibitor, partial curve]
COC(=O)C(=C/C(C)=C/c1cccs1)C(=O)OC | – | inconclusive: 35.5 µM [inhibitor, single point]
